PubChem BioAssay AID504804 | Drosophila RNAi Screening Center | 2011
The screen tested about 19,000 reagents; shown is a random part of those with a known target gene and a result. Over the whole deposit, 47 (0.25%) were called active. 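Signals are raw, not normalised; exact z-scores behind calls not deposited; actives needed confirmation, so some wells reaching 2 SD are inactive.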 A plus sign joins genes that one reagent is predicted to hit.

Test: 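Knock-downs shielding fly cells from apoptosis caused by DNA damage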 (primary screen)
Cells: Drosophila Kc cells
Knock-down reagent: long dsRNA against Drosophila genes, 0.5 µg dsRNA per well
Timing: 96 h (48 h knock-down, then 48 h drug)
Conditions: doxorubicin 5 µg/ml for 48 h, added 48 h after dsRNA
Measurement: 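Viability measured as cellular ATP by luminescence after 48 h knock-down then 48 h doxorubicin at 5 µg/ml; unnormalised plate counts for each replicate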
Reading the numbers: raw ATP luminescence: higher = more viable cells, protection from doxorubicin
Active means: 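Active when both duplicate wells lie at least 2 SD above the plate mean and protection is confirmed by rescreening and independent dsRNAs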

| gene | DRSC id | raw ATP luminescence, replicate 1 | raw ATP luminescence, replicate 2 | call |
| --- | --- | --- | --- | --- |
| fz2 | DRSC09595 | 61443 | 56077 | inactive |
| fz2 | DRSC10087 | 19803 | 17727 | inactive |
| fz2 | DRSC11349 | 63453 | 65423 | inactive |
| CG5131 | DRSC02817 | 58637 | 70697 | inactive |
| CG34202 | DRSC05907 | 64273 | 41267 | inactive |
| CG10062 | DRSC05960 | 78220 | 69257 | inactive |
| CG15344 (retired record) | DRSC18029 | 38710 | 43690 | inactive |
| Irbp | DRSC17007 | 56593 | 53443 | inactive |
| CG9393 | DRSC16486 | 47293 | 28803 | inactive |
| CG12723 | DRSC19499 | 4.17e5 | 3.97e5 | inactive |
| Cdc2rk | DRSC07590 | 43280 | 71330 | inactive |
| CG12009 | DRSC08217 | 43033 | 39463 | inactive |
| CG42680 | DRSC01399 | 2.89e5 | 2.60e5 | inactive |
| CG32111 (retired record) | DRSC09203 | 68863 | 73830 | inactive |
| CG14764 | DRSC05072 | 87917 | 82867 | inactive |
| CG14764 | DRSC06498 | 54133 | 40500 | inactive |
| CG14764 | DRSC06844 | 51667 | 75027 | inactive |
| AttA | DRSC05926 | 97123 | 49527 | inactive |
| Muc18B | DRSC20064 | 3.67e5 | 3.40e5 | inactive |
| CG8927 | DRSC16458 | 57040 | 77290 | inactive |
| wds | DRSC18852 | 38880 | 39320 | inactive |
| OtopLc | DRSC18082 | 35330 | 49840 | inactive |
| OtopLc | DRSC18083 | 33700 | 37940 | inactive |
| OtopLc | DRSC18132 | 43370 | 55450 | inactive |
| CG7214 | DRSC03028 | 1.03e5 | 64150 | inactive |
| CG14190 | DRSC19545 | 3.57e5 | 3.11e5 | inactive |
| CG31913 | DRSC00892 | 2.70e5 | 2.70e5 | inactive |
| CG13707 | DRSC08316 | 89313 | 86470 | inactive |
| 18w | DRSC05029 | 49043 | 49000 | inactive |
| CG8841 | DRSC07286 | 76990 | 60767 | inactive |
| CG14624 | DRSC18634 | 41880 | 38260 | inactive |
| Sulf1 | DRSC16874 | 59670 | 75690 | inactive |
| BthD | DRSC19395 | 3.14e5 | 3.12e5 | inactive |
| CG31872 | DRSC02568 | 31183 | 67707 | inactive |
| CG31872 | DRSC02572 | 40123 | 79900 | inactive |
| PDZ-GEF | DRSC03231 | 27970 | 27050 | inactive |
| mip130 | DRSC18575 | 57670 | 61870 | inactive |
| CG7457 | DRSC10849 | 79197 | 84180 | inactive |
| sens | DRSC09263 | 19380 | 22460 | inactive |
| TER94 | DRSC07560 | 53433 | 37213 | inactive |
| Rrp6 | DRSC16223 | 36197 | 19837 | inactive |
| tsu | DRSC07265 | 64180 | 64770 | inactive |
| Tehao | DRSC03449 | 17630 | 78373 | inactive |
| Taf6 | DRSC11299 | 22753 | 22070 | inactive |
| Acsx1R | DRSC14339 | 63100 | 36290 | inactive |
| CG14667 | DRSC12253 | 54043 | 61587 | inactive |
| CG14615 | DRSC20627 | 3.05e5 | 2.79e5 | inactive |
| CG8851 | DRSC00718 | 22460 | 34887 | inactive |
| mRpL1 | DRSC16251 | 51850 | 49660 | inactive |
| lncRNA:CR42862 | DRSC08348 | 65530 | 88837 | inactive |
| CG4678 | DRSC19911 | 3.02e5 | 3.06e5 | inactive |
| CG4678 | DRSC19912 | 3.42e5 | 3.51e5 | inactive |
| Rchy1 | DRSC02542 | 18850 | 18090 | inactive |
| CG11694 | DRSC14354 | 44820 | 47550 | inactive |
| Iru | DRSC14457 | 84450 | 29293 | inactive |
| CG3008 | DRSC00560 | 33383 | 46643 | inactive |

Continued, starting with the last 7 of the part before.
| gene | DRSC id | raw ATP luminescence, replicate 1 | raw ATP luminescence, replicate 2 | call |
| --- | --- | --- | --- | --- |
| lncRNA:CR42862 | DRSC08348 | 65530 | 88837 | inactive |
| CG4678 | DRSC19911 | 3.02e5 | 3.06e5 | inactive |
| CG4678 | DRSC19912 | 3.42e5 | 3.51e5 | inactive |
| Rchy1 | DRSC02542 | 18850 | 18090 | inactive |
| CG11694 | DRSC14354 | 44820 | 47550 | inactive |
| Iru | DRSC14457 | 84450 | 29293 | inactive |
| CG3008 | DRSC00560 | 33383 | 46643 | inactive |
| Mcm5 | DRSC16735 | 64973 | 59053 | inactive |
| pnr | DRSC17027 | 41283 | 50560 | inactive |
| CG1924 | DRSC19823 | 3.94e5 | 3.73e5 | inactive |
| CG13837 | DRSC14687 | 95820 | 73450 | inactive |
| CG4596 | DRSC15608 | 81323 | 65893 | inactive |
| Unc-115b + p24-2 | DRSC16492 | 51490 | 21500 | inactive |
| sisA | DRSC20374 | 3.17e5 | 2.70e5 | inactive |
| Ir47a | DRSC06215 | 44587 | 78270 | inactive |
| Vps52 | DRSC03050 | 24817 | 30840 | inactive |
| pim | DRSC03591 | 73907 | 46170 | inactive |
| CG15771 | DRSC18077 | 32840 | 40950 | inactive |
| beat-Va | DRSC14192 | 45080 | 46573 | inactive |
| CG15717 | DRSC19684 | 3.55e5 | 2.84e5 | inactive |
| Rsbp15 | DRSC14176 | 54367 | 56970 | inactive |
| prg | DRSC03324 | 50353 | 76350 | inactive |
| cal1 | DRSC15725 | 49137 | 42487 | inactive |
| Vha16-1 | DRSC05020 | 68733 | 54500 | inactive |
| CG17325 + CG42305 | DRSC02602 | 62267 | 57980 | inactive |
| Muc4B | DRSC18062 | 54730 | 70130 | inactive |
| Muc4B | DRSC18063 | 48950 | 65580 | inactive |
| Ir94h | DRSC15232 | 74480 | 58450 | inactive |
| CG10086 | DRSC14183 | 61920 | 62487 | inactive |
| CG42662 + CG30080 | DRSC05571 | 1.10e5 | 1.19e5 | inactive |
| tou | DRSC06006 | 57607 | 64403 | inactive |
| Dhit | DRSC07411 | 62820 | 67423 | inactive |
| Nost | DRSC18037 | 35400 | 31680 | inactive |
| Nost | DRSC18338 | 33250 | 28960 | inactive |
| Surf1 | DRSC11295 | 72630 | 74403 | inactive |
| Surf1 | DRSC11394 | 41740 | 41993 | inactive |
